No constants are given. Whether binding was seen depends on the method and setting. Binding seen in cells or lysates may run through a third protein.

Sequences of proteins named here, by UniProt entry; tags and fusion partners are left off. Residues count along the entry.
UniProt Q69ZK9, residues 15-836: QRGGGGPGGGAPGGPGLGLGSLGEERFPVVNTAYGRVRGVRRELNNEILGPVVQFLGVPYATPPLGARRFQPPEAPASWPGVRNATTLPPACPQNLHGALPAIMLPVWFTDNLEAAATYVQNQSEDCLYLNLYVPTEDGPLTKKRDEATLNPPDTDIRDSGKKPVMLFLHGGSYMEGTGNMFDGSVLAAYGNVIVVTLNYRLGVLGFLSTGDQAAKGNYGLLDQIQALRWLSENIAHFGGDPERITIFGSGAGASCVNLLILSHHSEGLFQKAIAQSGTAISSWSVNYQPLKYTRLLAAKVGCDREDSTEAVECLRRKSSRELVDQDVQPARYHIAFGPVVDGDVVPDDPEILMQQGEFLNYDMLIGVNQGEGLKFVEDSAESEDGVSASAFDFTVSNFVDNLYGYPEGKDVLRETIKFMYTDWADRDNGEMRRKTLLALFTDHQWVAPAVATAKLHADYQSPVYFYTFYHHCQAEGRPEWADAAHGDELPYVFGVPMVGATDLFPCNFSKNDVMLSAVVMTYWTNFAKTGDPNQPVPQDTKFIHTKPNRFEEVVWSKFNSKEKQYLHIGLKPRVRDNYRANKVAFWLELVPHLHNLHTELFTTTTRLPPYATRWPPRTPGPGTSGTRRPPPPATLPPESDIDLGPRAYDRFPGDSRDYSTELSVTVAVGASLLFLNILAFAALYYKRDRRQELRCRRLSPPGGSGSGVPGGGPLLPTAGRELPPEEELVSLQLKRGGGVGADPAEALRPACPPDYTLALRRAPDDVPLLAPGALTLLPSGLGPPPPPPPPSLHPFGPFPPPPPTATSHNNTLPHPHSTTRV

Test [1] deals with T1, KCC2, endogenous in mouse cerebral cortex (mouse (endogenous in mouse cerebral cortex)) (UniProt Q91V14).
T1 sequence: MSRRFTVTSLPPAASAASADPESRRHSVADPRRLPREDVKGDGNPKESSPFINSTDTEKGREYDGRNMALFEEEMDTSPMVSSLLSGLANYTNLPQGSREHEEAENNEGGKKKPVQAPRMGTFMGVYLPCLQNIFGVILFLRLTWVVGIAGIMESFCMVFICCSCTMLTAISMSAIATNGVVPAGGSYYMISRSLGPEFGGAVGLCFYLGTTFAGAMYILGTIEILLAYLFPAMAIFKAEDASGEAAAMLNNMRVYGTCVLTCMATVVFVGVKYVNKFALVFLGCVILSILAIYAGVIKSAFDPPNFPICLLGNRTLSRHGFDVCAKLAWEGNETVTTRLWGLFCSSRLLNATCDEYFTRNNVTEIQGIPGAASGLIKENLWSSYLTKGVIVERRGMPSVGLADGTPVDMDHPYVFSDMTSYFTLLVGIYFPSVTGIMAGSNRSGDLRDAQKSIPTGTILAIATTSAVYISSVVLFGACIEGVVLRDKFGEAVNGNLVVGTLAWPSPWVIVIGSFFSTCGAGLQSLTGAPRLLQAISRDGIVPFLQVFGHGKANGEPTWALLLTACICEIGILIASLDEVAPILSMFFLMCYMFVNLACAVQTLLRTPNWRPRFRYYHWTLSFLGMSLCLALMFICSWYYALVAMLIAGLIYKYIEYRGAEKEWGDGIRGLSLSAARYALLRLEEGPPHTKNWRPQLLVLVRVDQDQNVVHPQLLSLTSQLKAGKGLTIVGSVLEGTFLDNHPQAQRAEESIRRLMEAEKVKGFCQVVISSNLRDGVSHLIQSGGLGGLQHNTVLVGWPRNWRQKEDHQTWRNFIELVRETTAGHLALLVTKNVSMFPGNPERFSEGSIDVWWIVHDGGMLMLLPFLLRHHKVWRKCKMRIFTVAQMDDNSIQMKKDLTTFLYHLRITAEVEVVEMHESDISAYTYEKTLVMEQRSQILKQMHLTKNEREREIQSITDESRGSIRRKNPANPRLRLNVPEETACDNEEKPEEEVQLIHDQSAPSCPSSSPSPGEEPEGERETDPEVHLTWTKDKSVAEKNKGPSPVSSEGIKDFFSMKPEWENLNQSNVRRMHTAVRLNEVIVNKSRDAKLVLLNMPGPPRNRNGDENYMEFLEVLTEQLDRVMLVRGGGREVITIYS
Nature of the test: co-IP; total mouse cerebral cortex lysate (2-3 month old mouse); immunoprecipitated with rabbit anti-NL2, rabbit anti-KCC2 or normal rabbit IgG on Dynabeads sheep anti-rabbit IgG, overnight at 4°C; probed with rabbit anti-KCC2 or anti-NL2.

For test [2], the target named is Neuroligin-2, endogenous in mouse cerebral cortex (mouse (endogenous in mouse cerebral cortex)) (UniProt Q69ZK9). The description is as above.
The target of test [3] is HA-tagged WT mouse neuroligin-2 (mouse) (UniProt Q69ZK9). Nature of the test: co-IP; HEK 293T cells co-transfected with HA-NL2 and KCC2; lysate in Pierce IP buffer with protease and phosphatase inhibitors; about 2 mg lysate with Dynabeads and 2 ug mouse anti-HA (or normal mouse IgG) overnight at 4°C; blotted with rabbit anti-KCC2 and anti-NL2.

On to “Neuroligin-2, endogenous in mouse cerebral cortex (from UniProt Q69ZK9 15-836)”, for which, in test [1], the binding entry is on record as “no binding”.

B1: KCC2, endogenous in mouse cerebral cortex (protein, UniProt Q91V14 1-1138)
chain: MSRRFTVTSLPPAASAASADPESRRHSVADPRRLPREDVKGDGNPKESSPFINSTDTEKGREYDGRNMALFEEEMDTSPMVSSLLSGLANYTNLPQGSREHEEAENNEGGKKKPVQAPRMGTFMGVYLPCLQNIFGVILFLRLTWVVGIAGIMESFCMVFICCSCTMLTAISMSAIATNGVVPAGGSYYMISRSLGPEFGGAVGLCFYLGTTFAGAMYILGTIEILLAYLFPAMAIFKAEDASGEAAAMLNNMRVYGTCVLTCMATVVFVGVKYVNKFALVFLGCVILSILAIYAGVIKSAFDPPNFPICLLGNRTLSRHGFDVCAKLAWEGNETVTTRLWGLFCSSRLLNATCDEYFTRNNVTEIQGIPGAASGLIKENLWSSYLTKGVIVERRGMPSVGLADGTPVDMDHPYVFSDMTSYFTLLVGIYFPSVTGIMAGSNRSGDLRDAQKSIPTGTILAIATTSAVYISSVVLFGACIEGVVLRDKFGEAVNGNLVVGTLAWPSPWVIVIGSFFSTCGAGLQSLTGAPRLLQAISRDGIVPFLQVFGHGKANGEPTWALLLTACICEIGILIASLDEVAPILSMFFLMCYMFVNLACAVQTLLRTPNWRPRFRYYHWTLSFLGMSLCLALMFICSWYYALVAMLIAGLIYKYIEYRGAEKEWGDGIRGLSLSAARYALLRLEEGPPHTKNWRPQLLVLVRVDQDQNVVHPQLLSLTSQLKAGKGLTIVGSVLEGTFLDNHPQAQRAEESIRRLMEAEKVKGFCQVVISSNLRDGVSHLIQSGGLGGLQHNTVLVGWPRNWRQKEDHQTWRNFIELVRETTAGHLALLVTKNVSMFPGNPERFSEGSIDVWWIVHDGGMLMLLPFLLRHHKVWRKCKMRIFTVAQMDDNSIQMKKDLTTFLYHLRITAEVEVVEMHESDISAYTYEKTLVMEQRSQILKQMHLTKNEREREIQSITDESRGSIRRKNPANPRLRLNVPEETACDNEEKPEEEVQLIHDQSAPSCPSSSPSPGEEPEGERETDPEVHLTWTKDKSVAEKNKGPSPVSSEGIKDFFSMKPEWENLNQSNVRRMHTAVRLNEVIVNKSRDAKLVLLNMPGPPRNRNGDENYMEFLEVLTEQLDRVMLVRGGGREVITIYS
As to B1, the binding entry in test [2] is “no binding”.

B2: Rat KCC2 (potassium-chloride transporter 2) (protein, UniProt Q63633 1-1139)
chain: MSRRFTVTSLPPAASAASADPESRRHSVADPRRLPREDVKGDGNPKESSPFINSTDTEKGREYDGRNMALFEEEMDTSPMVSSLLSGLANYTNLPQGSKEHEEAENNEGGKKKPVQAPRMGTFMGVYLPCLQNIFGVILFLRLTWVVGIAGIMESFCMVFICCSCTMLTAISMSAIATNGVVPAGGSYYMISRSLGPEFGGAVGLCFYLGTTFAGAMYILGTIEILLAYLFPAMAIFKAEDASGEAAAMLNNMRVYGTCVLTCMATVVFVGVKYVNKFALVFLGCVILSILAIYAGVIKSAFDPPNFPICLLGNRTLSRHGFDVCAKLAWEGNETVTTRLWGLFCSSRLLNATCDEYFTRNNVTEIQGIPGAASGLIKENLWSSYLTKGVIVERRGMPSVGLADGTPVDMDHPYVFSDMTSYFTLLVGIYFPSVTGIMAGSNRSGDLRDAQKSIPTGTILAIATTSAVYISSVVLFGACIEGVVLRDKFGEAVNGNLVVGTLAWPSPWVIVIGSFFSTCGAGLQSLTGAPRLLQAISRDGIVPFLQVFGHGKANGEPTWALLLTACICEIGILIASLDEVAPILSMFFLMCYMFVNLACAVQTLLRTPNWRPRFRYYHWTLSFLGMSLCLALMFICSWYYALVAMLIAGLIYKYIEYRGAEKEWGDGIRGLSLSAARYALLRLEEGPPHTKNWRPQLLVLVRVDQDQNVVHPQLLSLTSQLKAGKGLTIVGSVLEGTFLDNHPQAQRAEESIRRLMEAEKVKGFCQVVISSNLRDGVSHLIQSGGLGGLQHNTVLVGWPRNWRQKEDHQTWRNFIELVRETTAGHLALLVTKNVSMFPGNPERFSEGSIDVWWIVHDGGMLMLLPFLLRHHKVWRKCKMRIFTVAQMDDNSIQMKKDLTTFLYHLRITAEVEVVEMHESDISAYTYEKTLVMEQRSQILKQMHLTKNEREREIQSITDESRGSIRRKNPANTRLRLNVPEETACDNEEKPEEEVQLIHDQSAPSCPSSSPSPGEEPEGEGETDPEKVHLTWTKDKSAAQKNKGPSPVSSEGIKDFFSMKPEWENLNQSNVRRMHTAVRLNEVIVNKSRDAKLVLLNMPGPPRNRNGDENYMEFLEVLTEQLDRVMLVRGGGREVITIYS
For B2, the binding entry in test [3] is listed as “no binding”.

For the origin of these results see publication PMC3661362.
